In one test the target is SIRT7–Flag (UniProt Q9NRC8). Briefly: co-IP; Flag-specific immunoprecipitation (anti-Flag beads, overnight, 4 °C) from HAFTL cells retrovirally transduced with empty vector or SIRT7–Flag; RIPA lysis, benzonase for 8 h; washes with 500 mM NaCl buffer; Pax5 and SIRT7 immunoblotting.
A further test deals with Pax5-FLAG (mouse) (UniProt Q02650). Description: co-IP; FLAG-specific immunoprecipitation from HEK293F cells transiently co-expressing SIRT7-HA with empty vector or Pax5-FLAG; FLAG and HA immunoblotting.

Chains of the proteins cited; added tags and fusions are not shown.
UniProt Q9NRC8: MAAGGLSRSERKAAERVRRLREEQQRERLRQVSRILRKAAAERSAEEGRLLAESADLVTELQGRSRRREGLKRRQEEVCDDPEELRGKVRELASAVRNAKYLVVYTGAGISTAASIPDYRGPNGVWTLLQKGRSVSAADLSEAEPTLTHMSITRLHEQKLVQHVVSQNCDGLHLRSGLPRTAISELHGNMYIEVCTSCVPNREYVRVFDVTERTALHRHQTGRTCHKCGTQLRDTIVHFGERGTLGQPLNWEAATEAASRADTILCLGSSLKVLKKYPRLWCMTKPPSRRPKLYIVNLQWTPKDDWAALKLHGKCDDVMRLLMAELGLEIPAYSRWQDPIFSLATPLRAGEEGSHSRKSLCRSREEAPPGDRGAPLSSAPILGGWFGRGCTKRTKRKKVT
UniProt Q02650: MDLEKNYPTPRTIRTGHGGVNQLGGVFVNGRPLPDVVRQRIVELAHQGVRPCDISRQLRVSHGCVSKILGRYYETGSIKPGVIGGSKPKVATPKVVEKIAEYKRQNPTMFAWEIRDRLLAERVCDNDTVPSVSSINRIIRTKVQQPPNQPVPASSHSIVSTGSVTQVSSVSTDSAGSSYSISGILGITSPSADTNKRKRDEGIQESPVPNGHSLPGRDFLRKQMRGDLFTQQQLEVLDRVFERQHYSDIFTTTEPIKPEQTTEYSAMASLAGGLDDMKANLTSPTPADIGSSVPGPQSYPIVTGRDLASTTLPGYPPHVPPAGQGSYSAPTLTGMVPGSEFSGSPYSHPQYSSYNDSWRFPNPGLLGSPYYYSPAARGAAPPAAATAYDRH

Data on two substances can be found in paper PMC11588656.

No constants are given. Whether binding was seen depends on the method and setting. In cells and extracts the contact can be indirect. Some results given as binding are weak or reduced against the parent protein; the word gives no strength.

Consider “Pax5 (endogenous, HAFTL cells) (from UniProt Q02650 1-391)”, for which the binding result with SIRT7–Flag is listed as “binds”.
Regarding “SIRT7-HA (from UniProt Q9NRC8 1-400) (enzyme)”, the binding result with Pax5-FLAG (mouse) is on record as “binds”.
